Source: publication PMC3519819
No constants are given. Whether binding was seen depends on the method and setting. Binding seen in cells or lysates may run through a third protein. Some binding calls cover weakened binding; strength is not graded here. Tags and fused reporters may be left off the sequences shown.

By UniProt entry, the sequences of proteins in these tests, tags left out.
UniProt P0A6B7: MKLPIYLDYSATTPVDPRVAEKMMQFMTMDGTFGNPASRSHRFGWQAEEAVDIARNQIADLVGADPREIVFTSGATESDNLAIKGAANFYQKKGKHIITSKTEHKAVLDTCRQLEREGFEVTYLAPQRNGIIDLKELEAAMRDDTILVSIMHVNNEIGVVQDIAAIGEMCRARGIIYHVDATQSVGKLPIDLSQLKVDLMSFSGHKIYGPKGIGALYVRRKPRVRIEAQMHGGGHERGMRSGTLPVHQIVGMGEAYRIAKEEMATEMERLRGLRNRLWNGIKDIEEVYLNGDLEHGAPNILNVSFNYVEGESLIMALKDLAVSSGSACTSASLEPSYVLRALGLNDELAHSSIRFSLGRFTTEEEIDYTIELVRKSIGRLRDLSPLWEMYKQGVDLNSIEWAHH

Target: T1, GST tagged DptE (Salmonella enterica serovar Cerro 87) (UniProt E2D679)
T1 sequence: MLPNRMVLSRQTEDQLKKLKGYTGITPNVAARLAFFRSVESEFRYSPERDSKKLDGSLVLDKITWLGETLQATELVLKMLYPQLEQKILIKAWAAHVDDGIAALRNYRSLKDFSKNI
Experiment: pull-down; Cell extracts of Strep-IscS and GST-DptC or GST-DptE mixed in equal volume, GST resin, Buffer S (25 mM Hepes pH7.6, 100 mM KCl, 10% glycerol), 1 hour, eluted with 20 mM glutathione; Western blot against StreptagII

Strep tagged IscS (from UniProt P0A6B7 1-404) (enzyme)
binding: binds
